Experimental data reported in PubChem BioAssay AID2417 (National Center for Advancing Translational Sciences (NCATS), 2010).
About 4,300 (3.1%) of roughly 140,000 compounds were called active. The inconclusive results got no clear call from the source; some entries with a clear call stand among them for comparison.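 Rule for the calls: active = readout at or below -70, meaning at least 70% loss of cells showing the perinucleolar compartment, a nuclear body marking cancer cells; inconclusive = readout between -30 and a set limit; inactive = the rest.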

Test: High Content Assay for Compounds that inhibit the Assembly of the Perinucleolar Compartment;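 note: plate controls were DMSO wells for no effect and camptothecin positive control wells for full effect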
Details: PC3M PTB-GFP, PNC prevalence imaging, 16 h; at 10 µM; active compounds read low
Procedure, shortened: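 PC3M cells stably expressing PTB-GFP, 750–1000 cells/well, treated 16 h at 37 °C with compound (23 nl of library stock), in duplicate. After paraformaldehyde fixation and Hoechst stain, imaged at 20x; PNC prevalence scored by image analysis.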

Row | SMILES | activity change (PNC), negative = inhibition
1 | O=C(c1ccccc1)[C@@H]1[C@@H](C(=O)c2ccc(F)cc2)[C@@]2(C(=O)Nc3ccccc32)[C@H]2c3ccccc3C=CN12 | inactive: 26.3%
2 | COC(=O)CNC(c1ccccc1)c1cc(Br)ccc1NS(=O)(=O)c1ccc(C)cc1 (centres undefined) | inconclusive: -36%
3 | C/C(=N\NC(=S)NC(C)C)c1ccc(Cl)s1 | inconclusive: -33.5%
4 | CCn1nc(C)c(NC(=O)CCSc2nc(-c3ccco3)cc(C(F)(F)F)n2)c1C | inactive: -11.3%
5 | N#Cc1c(NC(=S)NC(=O)Cc2cccs2)sc2c1CCCCC2 | inactive: -0.976%
6 | CCC(C)(C)NC(=O)C(c1ccncc1)N(Cc1cccs1)C(=O)Cn1nnc2ccccc21 (centres undefined) | inactive: -0.847%
7 | CC1CCCCN1Cc1ccc(-c2nn[nH]n2)cc1 (centres undefined) | inconclusive: -54.6%
8 | Cc1ccc(N2CCN(CC(=O)Nc3c(C(=O)C4CC4)oc4ccccc34)CC2)cc1 | inconclusive: -38.8%
9 | CCOc1ccc(Cn2c3ccc(OC)cc3c3nc4ccccc4nc32)cc1 | active: -89%
10 | C=CCNC(=O)c1ccc2nc(-c3ccccc3)c(-c3ccccc3)nc2c1 | inactive: 49.9%
11 | Cc1ccc2nc(SCC(=O)NCc3ccco3)c(C#N)cc2c1 | inactive: -18%
12 | Cc1ccc(NC(=O)c2ccc([N+](=O)[O-])cc2Cl)nc1 | inactive: 6.74%
13 | O=C(NCCc1c[nH]c2ccccc12)[C@@H]1C[C@H]1[C@@H](NP(=O)(c1ccccc1)c1ccccc1)c1ccccc1 | inactive: -23%
14 | CCn1c(SCC(=O)N2CCOCC2)nc2c(c1=O)SC(C)C2 (centres undefined) | active: -100%
15 | Cc1ccc(OCC(=O)N2CCN(c3nnc(-c4ccc(C)cc4)c4ccccc34)CC2)cc1 | inactive: 25.2%
16 | CC1(C)Cc2c(sc3[nH]c(=S)n(Cc4ccco4)c(=O)c23)CO1 | inactive: -8.65%
17 | CC(C)c1ccccc1NC(=O)Cn1c(-c2ccccc2Cl)nc2ccccc21 | inconclusive: -35.1%
18 | Cc1cc(C)cc(Oc2cc(NC(=O)c3cn(C)nc3C)cc([N+](=O)[O-])c2)c1 | inactive: 4.72%
19 | CC(=O)Nc1ccc(S(=O)(=O)NCc2ccc(C(=O)NC(C)c3ccccc3)cc2)cc1 (centres undefined) | inactive: -17.1%
20 | COc1ccccc1NC(=O)C1CCCCN1S(=O)(=O)c1ccc(F)cc1 (centres undefined) | inconclusive: -46.1%
21 | c1cncc(-c2nc3ccccn3c2Nc2ccc3c(c2)OCCO3)c1 | inconclusive: -41.1%
22 | N/C(=N\OC(=O)C12CC3CC(CC(C3)C1)C2)c1ccccn1 | inconclusive: -47.9%
23 | O=C(Cn1[nH]c(=O)c2ccccc2c1=O)OCC(=O)N1CCCc2ccccc21 | active: -97.4%

Row | SMILES | activity change (PNC), negative = inhibition
24 | Cc1ccc(NC(=O)CSc2nnc(-c3cccnc3)n2-c2ccc(C)cc2)cc1 | inactive: 4.07%
25 | COc1ccc(-c2ccc(=O)n(CC(=O)Nc3cccc(O)c3)n2)cc1OC | inconclusive: -40.6%
26 | CN(C)c1ccc(/C=C/C=C2/SC(=S)N(c3ccccc3)C2=O)cc1 | inactive: 68.6%
27 | Cc1ccc(OC(=O)CCC(=O)OCCCC(F)(F)C(F)(F)F)cc1 | inconclusive: -54.4%
28 | CCc1cccc(C)c1NC(=O)c1ccoc1C | inconclusive: -67.4%
29 | O=C(N/C(=C/c1cccc([N+](=O)[O-])c1)C(=O)N1CCCCC1)c1cccs1 | inactive: -29.1%
30 | Cc1ccc(C(=O)C2=C(O)C(=O)N(Cc3ccccc3)C2c2cccnc2)o1 (centres undefined) | inconclusive: -31.7%
31 | Cc1cc(C(=O)NCCCn2ccnc2)sc1-c1ccccc1 | inactive: 40.5%
32 | O=C(CN1C(=O)C2C3C=CC(C3)C2C1=O)Nc1nc(SCc2ccc(Cl)cc2)n[nH]1 (centres undefined) | inconclusive: -33.4%
33 | Cc1ccc(C(c2nnnn2Cc2cccs2)N2CCN(C(=O)c3ccco3)CC2)cc1 (centres undefined) | inconclusive: -55.5%
34 | O=C(Nc1nc(-c2ccc(-c3ccccc3)cc2)cs1)C1CCCO1 (centres undefined) | inconclusive: -45.3%
35 | Cc1cc2oc(=O)cc(CN3CCN(S(=O)(=O)c4ccc5c(c4)OCCO5)CC3)c2cc1C | inconclusive: -49.9%
36 | COc1ccc(C)cc1S(=O)(=O)Nc1cccc(SC)c1 | inconclusive: -47.5%
37 | Cc1ccc(Cl)c(OCC(=O)NCc2ccco2)c1 | inconclusive: -31.1%
38 | CCCC(=O)Nc1cc(-c2nnc(OC)c3ccccc23)ccc1N1CCCCC1 | inconclusive: -76.6%
39 | Cc1cccc(SCc2noc(C(=O)NCC3CCCO3)c2C(=O)O)c1 (centres undefined) | active: -89.7%
40 | CCOc1ccc(Nc2oc(Cc3ccccc3)nc2C#N)cc1 | inconclusive: -50.4%
41 | CCNc1nc(N)c(C(=O)c2ccc(Cl)s2)s1 | inconclusive: -71%
42 | CCCCc1ccc(NC(=O)c2c(C)noc2C)cc1 | inconclusive: -70.6%
43 | CCN(CC)S(=O)(=O)c1cc(C(=O)Nc2ccncc2)ccc1Cl | inactive: -11.7%
44 | CCOC(CCn1c(SCc2cccc([N+](=O)[O-])c2)nc2ccccc2c1=O)OCC | inactive: -25.1%
45 | O=C(c1cc2n(n1)C(C(F)(F)F)CC(c1ccco1)N2)N1CCc2ccccc2C1 (centres undefined) | inconclusive: -51.4%
46 | Cc1ccc(C(C[N+](=O)[O-])c2c(C)cc3ccccn23)cc1 (centres undefined) | inactive: -2.04%

Reprinted at random: 2 records from the list.
Row | SMILES | activity change (PNC), negative = inhibition
46 | Cc1ccc(C(C[N+](=O)[O-])c2c(C)cc3ccccn23)cc1 (centres undefined) | inactive: -2.04%
26 | CN(C)c1ccc(/C=C/C=C2/SC(=S)N(c3ccccc3)C2=O)cc1 | inactive: 68.6%

(more compounds)

Row | SMILES | activity change (PNC), negative = inhibition
47 | Cn1nc(-c2ccc(C(=O)N3CCN(Cc4ccccc4)CC3)cc2)c2ccccc2c1=O | inactive: 3.8%
48 | CN(C)C=Nc1c(C(=O)c2ccccc2)sc2nccc(N(C)C)c12 | inactive: 29.4%
49 | CCCOC1CCCN(C(=O)c2cc(Cl)c(Cl)cc2C(=O)O)C1 (centres undefined) | inconclusive: -38%
50 | O=C(Nc1ccc(F)cc1)c1ccccc1 | inactive: 19.9%
51 | COc1cccc2sc(N(CCCN(C)C)C(=O)c3sc4ccccc4c3Cl)nc12 | inactive: -8.82%
52 | CC(C)Oc1ccc(C(=O)CCN2CCCCC2)cc1 | inconclusive: -30.1%
53 | O=C(Cc1ccccc1)NC(=S)Nc1cccc(C(F)(F)F)c1 | inconclusive: -42.5%
54 | Nc1ccc(C(=O)c2ccccc2C(=O)O)cc1Cl | active: -107%
55 | CNc1cccccc1=S | inactive: 5.26%
56 | Cc1cc(C(=O)N2CCN(c3ccc([N+](=O)[O-])cc3)CC2)no1 | inconclusive: -53.3%
57 | COc1ccccc1NC(=O)CSc1nnc(CC(=O)Nc2ccccc2)n1C | inconclusive: -36.4%
58 | CCc1nccn1S(=O)(=O)c1cc(OC)c(Cl)cc1OC | inconclusive: -38.7%
59 | CC(C)(C)OC(=O)NCCc1nnc(SCc2ccc(Cl)cc2Cl)o1 | inconclusive: -35.4%
60 | COc1ccc(NC(=O)COC(=O)CCCc2c[nH]c3ccccc23)cc1 | inactive: -24.1%
61 | CCCN1CCC(NC(=O)Nc2ccc(OC)c(OC)c2)CC1 | inconclusive: -32%
62 | COC(=O)C(O)(CC(=O)Nc1ccc(OC)cc1)C(F)(F)F (centres undefined) | inconclusive: -64.5%
63 | Cc1nc2ccccc2c(=O)n1NC(=O)c1c(O)c2ccccc2n(C)c1=O | inconclusive: -62.3%
64 | CCOC(=O)C1CCCN(S(=O)(=O)c2ccc(Br)s2)C1 (centres undefined) | inconclusive: -38%
65 | CCOc1ccccc1N(CC(=O)Nc1ccc(S(=O)(=O)N2CCOCC2)cc1)S(=O)(=O)c1ccc(Cl)cc1 | inactive: -1.7%
66 | CC(C)CC(c1nnnn1Cc1cccs1)N1CCN(c2nc3ccccc3s2)CC1 (centres undefined) | inconclusive: -39.9%
67 | CCN(CC)S(=O)(=O)c1cccc(C(=O)Oc2cccnc2)c1 | inconclusive: -50.9%
68 | CC(=O)N1CCN(Cc2nc3cc(NC(=O)c4ccc(Cl)cc4)ccc3n2C)CC1 | inactive: -6.25%
69 | CCOCCCNC(=O)c1cc2c(=O)n3cccc(C)c3nc2n1C | active: -116%

Row | SMILES | activity change (PNC), negative = inhibition
70 | COC(=O)CCn1nnc(-c2cccs2)n1 | inconclusive: -60.7%
71 | COCCNC(=O)CCCCCN1C(=O)CCC1=O | inactive: -16%
72 | Cc1ccc(NC(=O)NCc2ccc3c(c2)OCO3)cc1 | inactive: -10.1%
73 | COC(=O)CCC(=O)Nc1cc(S(=O)(=O)Nc2ccc(Cl)cc2)ccc1N1CCOCC1 | inconclusive: -42.8%
74 | CCC1(C)Nc2ccccc2C(=O)N1O (centres undefined) | inactive: 53%
75 | Cc1sc(=NC(=O)c2ccco2)n(C)c1-c1ccccc1 | inconclusive: -39.5%
76 | COc1ccc(/C=N/OCC(=O)N(Cc2ccc(OC)cc2)c2ccccc2C(=O)O)cc1 | inactive: 20.3%
77 | O=C(CSc1ccc2nnc(-c3ccccn3)n2n1)NCc1ccco1 | inactive: 10.1%
78 | CCOc1ccc2nc(SCC(=O)NCc3ccco3)sc2c1 | inconclusive: -31.8%
79 | CC(=O)Nc1ccc(Oc2nc(C)cc(C)n2)cc1 | inconclusive: -65%
80 | COc1ccc(CNC(=O)C2CCCN(S(=O)(=O)c3c(C)n[nH]c3C)C2)cc1 (centres undefined) | inconclusive: -36.7%
81 | COc1ccc2c(c1)C(C)=CC(C)(C)N2C(=O)Nc1ccccc1 | inconclusive: -43.6%
82 | Cc1ccc(S(=O)(=O)N2CCCC2C(=O)N(C)Cc2cccs2)cc1 (centres undefined) | inconclusive: -54.5%
83 | CCc1ccc(NC(=O)c2ccc3nc(N)sc3c2)cc1 | inconclusive: -67.9%
84 | CC(C)(C)NC(=O)C(c1ccncc1)N(Cc1cccs1)C(=O)Cn1nnc(-c2ccc(F)cc2)n1 (centres undefined) | inactive: 0.424%
85 | Cc1ccc(S(=O)(=O)N(C)CC(=O)Nc2nc3ccccc3s2)cc1 | inconclusive: -73.7%
86 | O=C(CSc1nc2ccccc2c(=O)[nH]1)N1CCCCC1 | inactive: 41.3%
87 | COc1ccc(NC(=O)CSc2nnc(-c3ccncc3)n2CC2CCCO2)c(OC)c1 (centres undefined) | inconclusive: -44.1%
88 | N/C(=N\OC(=O)COc1ccc(Br)cc1Cl)c1cccnc1 | inactive: -23.7%
89 | COCCCN=C1NN=C(c2cc(C)n(Cc3ccco3)c2C)CS1 | active: -108%

Gathered by group, those above containing bromine
Row | SMILES | activity change (PNC), negative = inhibition
2 | COC(=O)CNC(c1ccccc1)c1cc(Br)ccc1NS(=O)(=O)c1ccc(C)cc1 (centres undefined) | inconclusive: -36%
64 | CCOC(=O)C1CCCN(S(=O)(=O)c2ccc(Br)s2)C1 (centres undefined) | inconclusive: -38%
88 | N/C(=N\OC(=O)COc1ccc(Br)cc1Cl)c1cccnc1 | inactive: -23.7%
